# Experimental data as given in PubChem BioAssay AID2685 (National Center for Advancing Translational Sciences (NCATS), 2010).
# This is one part of the list. Further columns of the screen follow, without active or inactive calls. Most of these compounds were active or inconclusive in the main read-out, so they are no random draw. The note in brackets gives the kind of curve behind each potency; many fits are weak.
# Test: qHTS Assay for Lipid Storage Modulators in Drosophila S3 Cells;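 on cell number change: cells counted by Cell Tracker Red CMTPX staining in the red channel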
# Conditions: BODIPY lipid droplet fluorescence, 18-24 h; for cell number change: measured here: cell count max response, cells fed with added oleic acid
# Procedure, shortened: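 Drosophila S3 cells got compounds at several concentrations plus oleic acid (400 uM solution). Laser-scanning cytometry with 488 nm excitation read lipid droplets at 500-530 nm and cells at 575-640 nm. Percent activity was relative to 20 uM Triacsin C.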
# [1] = measured here: lipid fluorescence (Fed channel) AC50, cells fed with added oleic acid
# [2] = measured here: cell number channel AC50, cells fed with added oleic acid
structure (smiles),measurement,setting,value
CC(=O)Nc1ccc(S(=O)(=O)N2CCSC2c2ccc(Cl)cc2)cc1 (stereo not given),cell number change,,-25.8%
same,AC50,[1],"0.092 µM [falling, full curve, poor fit]"
COC(=O)c1sccc1NC(=O)Nc1ccc(C)c(C)c1,cell number change,,-2.6%
C=CCC(O)c1c(-c2ccccc2)nn(C)c1Cl (stereo not given),cell number change,,0.271%
CN1Cc2sc(N)c(C#N)c2CC1(C)C,cell number change,,21.2%
same,AC50,[1],"16.4 µM [rising, single point]"
O=C(c1ccco1)N1CCCC(c2nc3c(nnn3Cc3cccc(Cl)c3)c(=O)[nH]2)C1 (stereo not given),cell number change,,6.84%
same,AC50,[1],"6.51 µM [rising, single point]"
Cc1cc(Cl)c(OCCCNC2CCCC2)c(Br)c1,cell number change,,2.07%
CN1C(=O)/C(=C/c2ccc(C(=O)NC3CCCC3)cc2)Oc2ccccc21,cell number change,,-22.7%
same,AC50,[1],"1.46 µM [falling, partial curve, poor fit]"
C/C(=N\Nc1ncc(Cl)cc1Cl)c1ccc(OC(F)F)cc1,cell number change,,15.1%
same,AC50,[1],"5.17 µM [rising, partial curve]"
Cc1cccc(C(=O)Nc2ccccc2SCC(=O)Nc2ccc(C)c(Cl)c2)c1,cell number change,,-22.3%
same,AC50,[1],"10.3 µM [falling, partial curve, poor fit]"
O=c1c(O[C@H]2O[C@@H](CO)[C@H](O)[C@@H](O)[C@@H]2O)c(-c2ccc(O)cc2)oc2cc(O)cc(O)c12,cell number change,,18.5%
same,AC50,[1],"3.66 µM [rising, full curve]"
COc1cc(-c2nc3ccccn3c2/N=C/c2cc(OC)c(O)cc2Cl)ccc1O,cell number change,,24.1%
COc1ccc(NC2CCCN(C(=O)c3cccnc3SC)C2)cc1OC (stereo not given),cell number change,,-13.2%
same,AC50,[1],"0.58 µM [rising, single point]"
CCN(CCn1cccn1)C(=O)C1CCC(=O)N(CC2CCCCC2)C1 (stereo not given),cell number change,,-6.57%
same,AC50,[1],"0.58 µM [rising, single point]"
CCCCn1c(N)c(N(CCOC)C(=O)c2cccc(S(=O)(=O)N(C)c3ccccc3)c2)c(=O)[nH]c1=O,cell number change,,48.3%
same,AC50,[2],"8.2 µM [rising, partial curve]"
same,AC50,[1],"6.51 µM [rising, single point]"
CC(C)N1CSC(=S)N(Cc2ccccc2)C1,cell number change,,-18.8%
same,AC50,[1],"29.1 µM [falling, single point]"
Cn1c(C(=O)N2CCC(C(=O)N3CCN(Cc4ccc5c(c4)OCO5)CC3)CC2)cc2sccc21,cell number change,,2.57%
same,AC50,[1],"29.1 µM [falling, single point]"
CC(C)c1ccc(NC(=O)c2cc(S(=O)(=O)N3CCCC3)c[nH]2)cc1,cell number change,,16.8%
same,AC50,[1],"0.92 µM [falling, full curve, poor fit]"
CCOC(=O)CN(c1cccc(C(C)=O)c1)S(C)(=O)=O,cell number change,,-3.24%
same,AC50,[1],"6.51 µM [rising, single point]"
Oc1ccc(-c2csc(-c3ccccc3)n2)cc1O,cell number change,,-40.4%
same,AC50,[2],"23.1 µM [falling, partial curve]"
same,AC50,[1],"2.59 µM [falling, partial curve, poor fit]"
Cc1cc(N2CCN(c3ccc(F)cc3)CC2)n2ncnc2n1,cell number change,,13%
same,AC50,[1],"10.3 µM [rising, partial curve]"
Cc1ccc(C(C)C)c(OCC(=O)OCC(=O)c2c(N)n(C)c(=O)n(C)c2=O)c1,cell number change,,-21.8%
same,AC50,[1],"10.3 µM [falling, partial curve, poor fit]"
Cc1ccccc1OCC(=O)Nc1sc2c(c1C#N)CCC2,AC50,[1],"2.91 µM [rising, single point]"
CC1Cc2nc(SCC(=O)N3CCOCC3)n(C)c(=O)c2S1 (stereo not given),cell number change,,19.4%
same,AC50,[1],"29.1 µM [rising, single point]"
Cc1ccc(NC(=O)c2sc3nc(CCl)[nH]c(=O)c3c2C)c(C)c1,cell number change,,28%
same,AC50,[2],"0.082 µM [rising, full curve, poor fit]"
same,AC50,[1],"0.058 µM [rising, full curve, poor fit]"
O=c1oc2cc(OCc3ccc(F)cc3F)ccc2cc1-c1ccc2ccccc2n1,cell number change,,36.6%
same,AC50,[2],"14.6 µM [rising, partial curve, poor fit]"
same,AC50,[1],"23.1 µM [rising, partial curve, poor fit]"
Cc1cc(C)nc(NS(=O)(=O)c2ccc(NC(=O)CSc3ncn[nH]3)cc2)n1,cell number change,,3.82%
same,AC50,[1],"4.11 µM [rising, single point]"
O=C(CCn1c(SCC(=O)c2ccccc2)nc2ccccc2c1=O)NCc1ccc(F)cc1,cell number change,,12.1%
COc1ccc(CCNc2nnc(Sc3nnnn3-c3ccccc3)s2)cc1OC,AC50,[1],"29.1 µM [falling, single point]"
Cc1cccc(N2CCN(C(=O)CCS(=O)(=O)c3ccc4c(c3)NC(=O)CO4)CC2)c1C,cell number change,,20.6%
same,AC50,[2],"0.82 µM [rising, full curve, poor fit]"
CC(C)CN(C(=O)c1ccco1)c1nc2ccccc2s1,cell number change,,-103%
same,AC50,[2],"29.1 µM [falling, single point]"
same,AC50,[1],"29.1 µM [falling, single point]"
O=[N+]([O-])c1ccc(N2CCN(C(=S)c3cccc([N+](=O)[O-])c3)CC2)cc1,cell number change,,-5.26%
same,AC50,[1],"16.4 µM [rising, single point]"
Cc1ccc(Cl)cc1NC(=O)c1ccc(CSc2nnnn2C)cc1,AC50,[2],"0.0164 µM [rising, full curve]"
same,AC50,[1],"0.731 µM [rising, partial curve, poor fit]"
COc1ccc([N+](=O)[O-])cc1NC(=O)C(C)OC(=O)CN1C(=O)C2CC=CCC2C1=O (stereo not given),cell number change,,-4.42%
CC1C=CCC2C(=O)N(c3ccc(Cl)cc3O)C(=O)C12 (stereo not given),cell number change,,-11.9%
same,AC50,[1],"29.1 µM [falling, single point]"
N#C/C(=C\c1ccc(O)c(O)c1)C(=O)Nc1ccccc1,cell number change,,-12.9%
same,AC50,[1],"14.6 µM [falling, partial curve, poor fit]"
Cc1ccccc1NC(=O)COc1nsnc1N1CCOCC1,cell number change,,7.99%
Cc1ccc(C(=O)Nc2ccc(C(=O)N/N=C/c3ccccn3)cc2)cc1,cell number change,,40.4%
same,AC50,[2],"16.4 µM [rising, partial curve, poor fit]"
CCn1c(CNC(=O)Cc2ccc(OC)cc2)nnc1SCC(=O)NC1CCCCC1,cell number change,,-17.8%
same,AC50,[1],"0.146 µM [falling, full curve]"
CC(=O)Nc1ccc(-c2nnc(SCc3ccccc3C#N)n2C)cc1,cell number change,,20.4%
same,AC50,[1],"23.1 µM [rising, partial curve]"
Cc1ccc(C)c(CSc2nnc(-c3cccnc3)o2)c1,cell number change,,-8.34%
same,AC50,[1],"0.461 µM [rising, full curve, poor fit]"
CCn1ncc(C2=NOC(C(=O)Nc3cccc(C(C)=O)c3)C2)c1C (stereo not given),cell number change,,-14.8%
same,AC50,[2],"3.66 µM [falling, single point]"
same,AC50,[1],"4.11 µM [falling, single point]"
C/C(=N\NC(=S)NC(C)C)c1ccc(C(C)(C)C)cc1,cell number change,,-35%
same,AC50,[2],"29.1 µM [falling, single point]"
Cc1ccc(Cn2c(=O)oc3ccccc32)cc1,AC50,[2],"5.8 µM [rising, partial curve]"
O=C(NCCCCCNC(=O)c1ccco1)c1ccco1,AC50,[1],"3.26 µM [falling, partial curve, poor fit]"
O=C(Cc1c[nH]c2ccccc12)N1CCc2ccccc21,AC50,[2],"1.16 µM [rising, full curve]"
COC(=O)[C@H](Cc1ccccc1)NC(=O)N1CC(C)OC(C)C1 (stereo not given in full),cell number change,,-55.9%
same,AC50,[2],"29.1 µM [falling, single point]"
same,AC50,[1],"1.3 µM [falling, full curve]"
O=C(O)c1cccn1Cc1ccccc1F,cell number change,,-34.3%
O=C(COC(=O)c1cccc(Br)c1)NCCc1ccc(F)cc1,cell number change,,-7.68%
same,AC50,[1],"18.4 µM [rising, partial curve]"
O=C(CCCN1C(=O)c2cccc3cccc(c23)C1=O)N1CCN(c2ncccn2)CC1,cell number change,,-10.5%
same,AC50,[1],"29.1 µM [falling, single point]"
O=C(NCC1CCCO1)c1ccc(CNS(=O)(=O)c2cccc(Cl)c2)cc1 (stereo not given),cell number change,,15.2%
COc1ccc(NC(=O)c2cc3c(=O)n(C)c4ccccc4c3n2C)cc1Cl,AC50,[1],"0.164 µM [rising, full curve, poor fit]"
COc1ccc2[nH]cc(CCNC(=S)NC3CCCC3)c2c1,cell number change,,-1.85%
same,AC50,[2],"6.51 µM [falling, single point]"
same,AC50,[1],"0.461 µM [falling, full curve]"
O=C(CN1C(=O)C2C3C=CC(C3)C2C1=O)OCC(=O)c1ccccc1 (stereo not given),cell number change,,-7.66%
COCc1nnc(NS(=O)(=O)c2ccc(Cl)cc2)s1,cell number change,,31.2%
same,AC50,[1],"29.1 µM [rising, single point]"
COc1ccccc1NC(=O)Cn1cnc2c(oc3ccccc32)c1=O,cell number change,,29.7%
same,AC50,[1],"6.51 µM [rising, partial curve]"
COC(=O)c1ccc(COc2ccccc2/C=N/Nc2cccc(C(=O)O)c2)cc1,cell number change,,24.4%
same,AC50,[1],"2.06 µM [rising, single point]"
O=C(COC(=O)c1ccc(S(=O)(=O)NCc2ccco2)cc1)Nc1ccccc1,cell number change,,-14.3%
same,AC50,[1],"23.1 µM [rising, partial curve]"
O=C(CCCCCn1c(=S)[nH]c2ccc(N3CCOCC3)cc2c1=O)NCc1ccccc1,cell number change,,62.1%
same,AC50,[2],"29.1 µM [rising, single point]"
O=C(NCc1ccc(Cl)cc1)C1=Cc2cc(Cl)ccc2OC1,cell number change,,71.2%
same,AC50,[2],"29.1 µM [rising, single point]"
same,AC50,[1],"0.651 µM [falling, single point]"
CCN(CC)C(=O)C1c2ccccc2Oc2ccccc21,cell number change,,-24.7%
CC(C)NC(=O)c1cccc(Br)c1,cell number change,,23.5%
CCSC1=C(C#N)C(c2ccc(F)cc2)CC(=O)N1 (stereo not given),cell number change,,7.6%
same,AC50,[1],"2.06 µM [falling, partial curve, poor fit]"

# Looked up one by one from the list above, six records:
structure (smiles),measurement,setting,value
COc1ccc(NC2CCCN(C(=O)c3cccnc3SC)C2)cc1OC (stereo not given),AC50,[1],"0.58 µM [rising, single point]"
C/C(=N\Nc1ncc(Cl)cc1Cl)c1ccc(OC(F)F)cc1,cell number change,,15.1%
Cc1cc(C)nc(NS(=O)(=O)c2ccc(NC(=O)CSc3ncn[nH]3)cc2)n1,cell number change,,3.82%
COc1ccc(NC(=O)c2cc3c(=O)n(C)c4ccccc4c3n2C)cc1Cl,AC50,[1],"0.164 µM [rising, full curve, poor fit]"
CC(C)N1CSC(=S)N(Cc2ccccc2)C1,AC50,[1],"29.1 µM [falling, single point]"
O=c1oc2cc(OCc3ccc(F)cc3F)ccc2cc1-c1ccc2ccccc2n1,AC50,[1],"23.1 µM [rising, partial curve, poor fit]"
